# Percent effect of library compounds

The chains behind the UniProt entries cited, without tags or fusion partners.
UniProt P9WPC5, whole entry: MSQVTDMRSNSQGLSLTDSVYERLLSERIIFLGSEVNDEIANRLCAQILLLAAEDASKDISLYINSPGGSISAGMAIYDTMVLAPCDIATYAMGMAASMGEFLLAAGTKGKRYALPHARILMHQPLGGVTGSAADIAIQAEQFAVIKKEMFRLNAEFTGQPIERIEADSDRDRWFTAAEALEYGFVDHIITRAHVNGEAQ
UniProt P9WPC3, whole entry partner: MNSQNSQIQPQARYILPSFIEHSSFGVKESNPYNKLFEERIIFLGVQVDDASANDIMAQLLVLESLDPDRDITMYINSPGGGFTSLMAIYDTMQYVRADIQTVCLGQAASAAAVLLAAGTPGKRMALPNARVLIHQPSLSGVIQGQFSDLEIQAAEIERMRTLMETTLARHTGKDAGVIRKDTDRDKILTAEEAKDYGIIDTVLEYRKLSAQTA
UniProt P9WFT3, whole entry: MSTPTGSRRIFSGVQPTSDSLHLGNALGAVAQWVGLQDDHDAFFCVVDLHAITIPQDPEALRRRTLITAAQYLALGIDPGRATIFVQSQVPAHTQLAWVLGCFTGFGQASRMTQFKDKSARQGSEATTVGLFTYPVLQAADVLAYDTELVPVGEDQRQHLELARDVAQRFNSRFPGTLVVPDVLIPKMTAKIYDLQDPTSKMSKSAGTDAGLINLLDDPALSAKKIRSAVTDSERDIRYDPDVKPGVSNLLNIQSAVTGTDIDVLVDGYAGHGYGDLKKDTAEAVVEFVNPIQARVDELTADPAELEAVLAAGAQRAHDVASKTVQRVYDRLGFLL
UniProt P9WNZ1, whole entry: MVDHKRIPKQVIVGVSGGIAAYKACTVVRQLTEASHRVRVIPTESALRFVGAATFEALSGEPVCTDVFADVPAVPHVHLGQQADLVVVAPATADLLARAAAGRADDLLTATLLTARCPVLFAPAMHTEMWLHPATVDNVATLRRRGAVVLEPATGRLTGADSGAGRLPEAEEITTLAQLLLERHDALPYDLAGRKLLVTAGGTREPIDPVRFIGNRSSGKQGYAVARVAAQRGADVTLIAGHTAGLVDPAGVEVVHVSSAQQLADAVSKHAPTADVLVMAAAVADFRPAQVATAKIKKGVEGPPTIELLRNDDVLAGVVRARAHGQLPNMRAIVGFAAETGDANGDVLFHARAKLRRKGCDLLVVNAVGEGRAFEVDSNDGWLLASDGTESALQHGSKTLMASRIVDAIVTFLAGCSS

A: 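Protease assay of ClpP1P2, read by the AMC dye that it sets free. Target: ClpP1P2, Mycobacterium tuberculosis (UniProt P9WPC5 and UniProt P9WPC3). Tested at 50 µM. Direction is inferred from only a few compounds that gave an IC50; most scored high, so higher reads as stronger inhibition. Most other retested compounds had strongly negative values. About 69,000 compounds were tested under these conditions; 0.015% (about 10) showed 50% or more at least once.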
B: 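Assay of Toxoplasma gondii numbers, read through their beta-galactosidase reporter with a colour substrate. Tested at 10 µM. Higher reads as fewer parasites (inferred from which compounds were picked for retests). Size under these conditions: about 67,000 compounds, about 260 of them at 50% or above in at least one test.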
C: 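Enzyme assay of tryptophanyl-tRNA synthetase; the read-out is not stated. Target: Tryptophan-tRNA ligase, Mycobacterium tuberculosis (UniProt P9WFT3). Tested at 10 µM. Higher most likely means stronger inhibition; the record gives no direction and few retests gave an IC50. About 65,000 compounds were tested under these conditions; 0.098% (about 64) showed 50% or more at least once.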
D: 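Enzyme assay of CoaBC with a phosphate dye (Biomol Green) read at 650 nm. Target: Coenzyme A biosynthesis protein CoaBC, Mycobacterium tuberculosis (UniProt P9WNZ1). Concentration: 30 µM. Direction is inferred from only a few compounds that gave an IC50; most scored high, so higher reads as stronger inhibition. Most strong results did not repeat in a second test. About 67,000 compounds were tested under these conditions; 0.06% (about 40) showed 50% or more at least once.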

The filed quantity is “Percent Effect” (%). How 0% and 100% were set is not recorded. Most values in the screen are low, and negative values occur. The compounds are a random part of those screened. A dash means the value is not listed here; it may have been measured.

Compound,A,B,C,D
CCC(C)NC(=O)c1cc(S(=O)(=O)N2CCCC2)c(C)s1 (stereo not drawn),-32.51%,-21.37%,-4.148%,0%
CC(C)c1ccc(-n2ncc(C(=O)N(C)C3CCN(C)CC3)c2N)cc1,6.539%,3.361%,-,2.427%
N#CC(Sc1nnnn1C1CCOCC1)C1CCCCC1 (stereo not drawn),-27.15%,0.1101%,1.421%,-0.4464%
O=C(c1sccc1C1CC1)N1CCN(c2ncccn2)CC1,4.812%,5.909%,-8.357%,-3.113%
O=C(C1CCCO1)N1CCc2nnc(Cn3cccc3)n2CC1 (stereo not drawn),2.495%,-6.85%,0.9709%,-
O=C(c1sccc1Cl)N1CCC(Cn2cc(CO)nn2)CC1,-7.704%,32.61%,5.443%,2.058%
Cc1cccc(OC2CCN(C(=O)c3ccc4ncsc4c3)CC2)n1,-5.492%,-4.894%,3.956%,3.576%
CC1CN(Cc2cccc(C#N)c2)CCN1c1ccc2nncn2n1 (stereo not drawn),-3.908%,2.044%,-3.916%,1.992%
Cc1cc(C)n(CC2CN(Cc3cscn3)CCO2)n1 (stereo not drawn),12.32%,-1.411%,0.6289%,2.66%
N#CC1(C(=O)NCc2ccc(F)cc2)CCCC1,-8.186%,19.27%,-3.584%,-3.559%
COC(=O)c1ccc(S(=O)(=O)NCc2cccnc2N(C)C)cc1,13.38%,-,-1.652%,6.427%
CCC(C(=O)NCc1ccncc1)N(c1ccc(F)cc1)S(C)(=O)=O (stereo not drawn),-3.11%,7.115%,3.638%,-2.057%
Cc1ccc2c(c1)CN(C(=O)c1ccncc1)C(CN(C)C)CO2 (stereo not drawn),1.562%,-,-,-3.186%
Cc1cc(NC(=O)NCCOc2ccc(Cl)cn2)no1,-4.263%,-8.614%,6.679%,4.303%
CN(Cc1nnc2n1CCC2)C(=O)c1ccc2c(c1)CCO2,-29.93%,5.723%,0.8475%,-7.8%
CC(C)(C)C(O)CN1CCN(CC(=O)NC(C2CC2)C2CC2)CC1 (stereo not drawn),12.53%,-3.361%,-4.237%,-6.452%
COc1cc(OC)cc(N2CCC(NCc3occc3C)C2=O)c1 (stereo not drawn),14.89%,4.388%,-0.8614%,-3.423%
COc1c(C(=O)NCC2CCCO2)nnn1Cc1ccccc1 (stereo not drawn),-11.74%,62.42%,-1.166%,-8.314%
CC(C)C(=O)N1CCN(c2cc(N(C)C)cnn2)CC1,8.054%,0.9009%,0.5319%,-0.2114%
CCN1CC2(CC1=O)CN(Cc1ccco1)CCN(C(=O)N(C)C)C2.O=C(O)C(F)(F)F (stereo not drawn),-,26.11%,-,-
COc1cccc(N2CCN(C(=O)CCO)CC2=O)c1,-25.81%,-0.3367%,-1.814%,5.684%
COc1ccc(NC(=O)Cn2nc(C)c(C)cc2=O)cc1OC,-16.2%,0%,3.328%,-5.757%
Nc1ncnc2nc(C3CCN(C(=O)Cc4ccccc4)C3)ccc12 (stereo not drawn),3.701%,10.08%,2.865%,2.392%
CC(C)c1nsc(N2CCOC3(CCCC3)C2)n1,-14.21%,5.515%,-4.307%,3.178%
CN1CC(=O)N(c2ccccc2)CC12CCN(Cc1nccn1C)C2 (stereo not drawn),15.7%,-,5.179%,-35.16%
CC1=NN(CC(=O)N2CC[C@@H]3[C@@H](CCC(=O)N3CC(C)C)C2)CC1,-17.48%,-,1.051%,3.822%
Cc1n[nH]cc1CNCC(c1ccsc1)N(C)C (stereo not drawn),5.665%,0.3846%,-3.515%,5.782%
CS(=O)(=O)NC[C@H]1Cn2c(-c3ccc(Cl)cc3)cnc2CO1,-10.8%,14.06%,1.442%,-1.104%
Cc1cnn(C2CN(Cc3nc(-c4ccccc4C)no3)C2)c1,-25.15%,-1.364%,10.81%,-3.484%
CSc1nsc(SCC(=O)c2cc3c(cc2Cl)NC(=O)C3)n1,-1.951%,-6.447%,-1.977%,0.2532%
CCOc1cc(C(=O)N2CCCC(n3cncn3)C2)ccc1C (stereo not drawn),-2.992%,1.616%,0.8746%,9.781%
[H][C@]12CCN(C(C)=O)[C@@]1([H])CC[C@H](COCc1csc(C)n1)O2,-,-27.2%,-,-
Cc1ccc(CN2Cc3nnn(C)c3C(COCc3ccccc3)C2)s1 (stereo not drawn),-24.83%,-,-4.083%,-4.198%
CS(=O)(=O)N1C[C@H]2N(c3ncccn3)CCC[C@@]2(C(=O)NCC2CC2)C1,-2.958%,-,-,2.469%
COc1ccc(Oc2nccnc2C2CCN(C(C)=O)CC2)cc1,11%,-10.51%,-,4.657%
COc1cccc(NC(=O)NC(C)c2ccc3c(c2)CC(=O)N3)c1 (stereo not drawn),-1.115%,-20.66%,1.125%,7.592%
[H][C@]12CC[C@]([H])(CN(C(C)=O)C1)N(C(=O)CCc1n[nH]c3c1CCCC3)C2,-,1.401%,-,-
CC(O)CN1CCC(CNCc2cn(-c3ccccc3)nn2)CC1 (stereo not drawn),9.357%,3.591%,-1.398%,-19.84%
Cc1ccc(-n2nc(C)cc2N)nn1,-16.31%,-24.47%,6.78%,1.899%
Cn1ncc2c(N3CCN(CCC(N)=O)CC3)nc(C3CCCC3)nc21,-4.483%,3.315%,5.703%,7.015%
Cc1cc(C(=O)N2CCCC(C(=O)c3cccs3)C2)c(=O)[nH]c1C (stereo not drawn),3.896%,-4.773%,-2.764%,4.883%
COCc1cc(CC2(NC3CCCCC3)COC2)no1,0.1596%,4.803%,4.926%,2.903%

Once more, the final 4:

{"compound": "Cc1ccc(-n2nc(C)cc2N)nn1", "A": -16.31, "B": -24.47, "C": 6.78, "D": 1.899}
{"compound": "Cn1ncc2c(N3CCN(CCC(N)=O)CC3)nc(C3CCCC3)nc21", "A": -4.483, "B": 3.315, "C": 5.703, "D": 7.015}
{"compound": "Cc1cc(C(=O)N2CCCC(C(=O)c3cccs3)C2)c(=O)[nH]c1C", "stereo": "stereo not drawn", "A": 3.896, "B": -4.773, "C": -2.764, "D": 4.883}
{"compound": "COCc1cc(CC2(NC3CCCCC3)COC2)no1", "A": 0.1596, "B": 4.803, "C": 4.926, "D": 2.903}

From ChEMBL document CHEMBL3988442, “University of Dundee, Small-Polar-MMV Screening Library” (2021).